Test results from paper PMC8445926.
Results are given in words; binding and its absence hold for the method and conditions named. Binding seen in cells or lysates may run through a third protein. Some entries that bind do so weakly or less than the wild type.

Amino acid sequences for entries named in this document (tags omitted).
UniProt Q64259: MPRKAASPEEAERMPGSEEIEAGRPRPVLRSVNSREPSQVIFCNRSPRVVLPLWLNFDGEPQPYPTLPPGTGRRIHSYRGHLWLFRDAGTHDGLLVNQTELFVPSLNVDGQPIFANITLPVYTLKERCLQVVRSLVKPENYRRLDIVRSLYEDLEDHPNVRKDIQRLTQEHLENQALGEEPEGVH
UniProt O35800: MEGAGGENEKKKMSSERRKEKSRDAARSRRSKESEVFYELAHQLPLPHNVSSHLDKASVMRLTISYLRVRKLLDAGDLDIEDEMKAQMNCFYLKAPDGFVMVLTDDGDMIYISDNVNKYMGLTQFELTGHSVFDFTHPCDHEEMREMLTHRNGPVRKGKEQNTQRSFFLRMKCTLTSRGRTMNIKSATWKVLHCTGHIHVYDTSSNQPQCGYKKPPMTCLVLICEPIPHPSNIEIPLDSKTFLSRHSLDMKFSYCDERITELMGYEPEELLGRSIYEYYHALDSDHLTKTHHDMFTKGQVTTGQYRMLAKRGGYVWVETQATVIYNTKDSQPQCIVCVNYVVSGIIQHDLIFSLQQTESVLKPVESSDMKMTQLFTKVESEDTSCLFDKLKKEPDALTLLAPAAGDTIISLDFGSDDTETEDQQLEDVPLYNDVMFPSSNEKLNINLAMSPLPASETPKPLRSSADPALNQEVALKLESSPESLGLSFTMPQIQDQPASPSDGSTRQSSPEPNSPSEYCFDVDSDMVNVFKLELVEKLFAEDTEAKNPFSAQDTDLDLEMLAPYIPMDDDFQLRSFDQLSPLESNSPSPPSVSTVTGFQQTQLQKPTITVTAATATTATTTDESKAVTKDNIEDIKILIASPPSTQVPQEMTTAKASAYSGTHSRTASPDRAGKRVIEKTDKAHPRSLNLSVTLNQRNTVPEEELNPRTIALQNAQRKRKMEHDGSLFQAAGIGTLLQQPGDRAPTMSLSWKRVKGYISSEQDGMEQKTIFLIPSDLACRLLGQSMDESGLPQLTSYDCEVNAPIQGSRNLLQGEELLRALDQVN

Experiments:
[1] = target: T1, Insulin-like growth factor binding protein-1 (UniProt P21743); test: co-IP; H9c2 cells overexpressing HIF-1α (pcDNA3.1) and IGFBP-1 (adenovirus) for 48 h, normoxia; lysates precipitated with anti-IGFBP-1 antibody on Dynabeads (1 h, 4 °C), immunoblot for PHD2 and VHL
T1 sequence: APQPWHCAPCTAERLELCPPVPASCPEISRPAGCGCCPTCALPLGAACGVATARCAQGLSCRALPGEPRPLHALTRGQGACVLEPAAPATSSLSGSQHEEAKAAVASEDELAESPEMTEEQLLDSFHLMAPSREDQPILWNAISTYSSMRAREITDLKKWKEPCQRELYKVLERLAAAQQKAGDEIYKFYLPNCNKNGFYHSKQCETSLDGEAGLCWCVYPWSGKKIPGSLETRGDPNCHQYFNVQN

[2] = target: von Hippel–Lindau (VHL) protein (rat (endogenous in H9c2)) (UniProt Q64259); test: co-IP; H9c2 cells overexpressing the same level of HIF-1α and different levels of IGFBP-1, normoxia; co-immunoprecipitation with anti-IGFBP-1, anti-VHL and anti-HIF-1α antibodies (Supplementary Fig. 3a, b)
[3] = target: T1, Insulin-like growth factor binding protein-1; test: as above

Substance	binding [1]	binding [2]	binding [3]
HIF-1α (from UniProt O35800 1-825)	no binding	binds	
von Hippel–Lindau (VHL) protein (from UniProt Q64259 1-185)	binds		binds
